Data as given in PubChem BioAssay AID190 (DTP/NCI, 2004).
The list shows only some results of the screen, not a fair sample: it gathers tests that were run many times, whatever their T/C, doses with no T/C, and many T/C values between a quarter and a half above the control. Further doses and runs are listed elsewhere. T/C is the treated group as % of the vehicle group. Some doses have a count of surviving animals in place of a T/C: the source holds a T/C of zero for them, seemingly a mark for toxic or unscored doses. Some doses without a T/C left all or most animals alive at the check, yet need not have been tolerated: the source hardly ever lists a survival T/C far under the control, and the zero likely stands for such cases as well. Survivors were counted at the toxicity check, usually on the fifth day, unless a day is given; later deaths do not show. Schedules are NCI's codes, taken here to give the interval after Q, in days (D) or hours (H), and the number of doses after X. Some doses were run more than once; the results are listed from low to high. Signs of the kind (2×) stand for listed records that agree. For survival time, this PubChem deposit counts one and a half times the control or more as active, and values a quarter to a half above the control carry no call in these data; other NCI protocols may use other cut-offs. Some T/C values are followed by the survivors on the day toxicity was checked, most often the fifth; where none is given, no animal had died by that day.

Tested on: AKR/Lw mice, AKR lymphoma ip, median survival T/C
Assay: NCI In Vivo Anticancer Drug Screen. Data for tumor model Lymphoma AKR (Transplanted) (intraperitoneal) in AKR/Lw mice
Conditions: T/C endpoint: median survival time, higher T/C = longer survival
Experimental: The antitumor activity of compounds was measured in mice bearing transplantable tumors. Survival or tumor size were measured and the results are expressed as the measurement made in the treated group (T) divided by the measurement made in the vehicle treated control group (C). The tumor model used in this assay is Lymphoma AKR (Transplanted) (intraperitoneal) in AKR/Lw mice

[1] = dose: 12.5 mg/kg/injection, schedule: Q01DX009 (ip), vehicle: saline
[2] = dose: 50.0 mg/kg/injection, schedule: Q01DX009 (ip), vehicle: saline

SMILES: O=P1(N(CCCl)CCCl)NCCCO1 (configuration not stated)
- T/C (dose: 3.5 mg/kg/injection, schedule: Q01DX015 (ip), vehicle: saline): 144 % of control
- T/C (dose: 4.0 mg/kg/injection, schedule: Q01DX015 (ip), vehicle: saline): 141 % of control
- T/C (dose: 6.2 mg/kg/injection, schedule: Q01DX009 (ip), vehicle: saline): 111, 113, 126, 141 % of control [9 of 10 alive]
- T/C (dose: 11.0 mg/kg/injection, schedule: Q01DX015 (ip), vehicle: saline): 138 % of control
- T/C (dose: 12.0 mg/kg/injection, schedule: Q01DX009 (ip), vehicle: saline): 125 % of control [9 of 10 alive]
- T/C [1]: 117, 123, 147, 200 % of control
- survivor count [1]: 8 of 10
- T/C (dose: 12.5 mg/kg/injection, schedule: Q04DX003 (ip), vehicle: saline): 125 % of control
- T/C (dose: 12.5 mg/kg/injection, schedule: Q07DX005 (ip), vehicle: saline, evaluated on day 5): 135 and 136 % of control
- T/C (dose: 12.5 mg/kg/injection, schedule: Q07DX005 (ip), vehicle: saline, evaluated on day 60): 135 and 136 % of control
- T/C (dose: 12.5 mg/kg/injection, schedule: Q14DX004 (ip), vehicle: saline): 146 % of control
- T/C (dose: 16.0 mg/kg/injection, schedule: Q01DX015 (ip), vehicle: saline): 136 and 144 % of control [9 of 10 alive]
- T/C (dose: 16.0 mg/kg/injection, schedule: Q03HX032 (ip), vehicle: saline, evaluated on day 5): 125 % of control
- T/C (dose: 16.0 mg/kg/injection, schedule: Q03HX032 (ip), vehicle: saline, evaluated on day 60): 125 % of control
- T/C (dose: 25.0 mg/kg/injection, schedule: Q01DX001 (ip), vehicle: saline, evaluated on day 5): 117 % of control
- T/C (dose: 25.0 mg/kg/injection, schedule: Q01DX001 (ip), vehicle: saline, evaluated on day 13): 301 % of control
- T/C (dose: 25.0 mg/kg/injection, schedule: Q01DX001 (ip), vehicle: saline, evaluated on day 60): 95, 104, 116, 117, 126 % of control
- T/C (dose: 25.0 mg/kg/injection, schedule: Q01DX009 (ip), vehicle: saline, evaluated on day 45): 104 % of control
- T/C (dose: 25.0 mg/kg/injection, schedule: Q01DX009 (ip), vehicle: saline, evaluated on day 60): 107, 115, 128, 136 [8 of 10 alive], 147, 155, 156, 196, 235 % of control
- survivor count (dose: 25.0 mg/kg/injection, schedule: Q01DX009 (ip), vehicle: saline): 9 of 10 and 10 of 10
- T/C (dose: 25.0 mg/kg/injection, schedule: Q04DX003 (ip), vehicle: saline): 135 [8 of 10 alive] and 141 % of control
- T/C (dose: 25.0 mg/kg/injection, schedule: Q07DX003 (ip), vehicle: saline): 126 and 142 % of control
- T/C (dose: 25.0 mg/kg/injection, schedule: Q07DX005 (ip), vehicle: saline, evaluated on day 5): 133, 152, 177 % of control
- T/C (dose: 25.0 mg/kg/injection, schedule: Q07DX005 (ip), vehicle: saline, evaluated on day 60): 133, 152, 177 % of control
- survivor count (dose: 35.0 mg/kg/injection, schedule: Q01DX009 (ip), vehicle: saline): 10 of 10
- T/C (dose: 37.5 mg/kg/injection, schedule: Q01DX001 (ip), vehicle: water): 130 % of control
- survivor count (dose: 48.0 mg/kg/injection, schedule: Q01DX015 (ip), vehicle: saline): 10 of 10
- T/C (dose: 50.0 mg/kg/injection, schedule: Q01DX001 (ip), vehicle: saline with Tween-80): 127 % of control
- T/C (dose: 50.0 mg/kg/injection, schedule: Q01DX001 (ip), vehicle: saline, evaluated on day 5): 127 and 186 % of control
- T/C (dose: 50.0 mg/kg/injection, schedule: Q01DX001 (ip), vehicle: saline, evaluated on day 11): 138 % of control
- T/C (dose: 50.0 mg/kg/injection, schedule: Q01DX001 (ip), vehicle: saline, evaluated on day 13): 301 % of control
- T/C (dose: 50.0 mg/kg/injection, schedule: Q01DX001 (ip), vehicle: saline, evaluated on day 45): 123, 140, 142 [9 of 10 alive], 150, 166 % of control
- T/C (dose: 50.0 mg/kg/injection, schedule: Q01DX001 (ip), vehicle: saline, evaluated on day 60): 100, 111 [9 of 10 alive], 112 [8 of 10 alive], 117, 118, 121, 127 (2×), 130, 131 (2×), 132, 133, 135, 136, 137, 141, 152, 161, 177, 186 % of control
- T/C [2]: 125, 138, 144, 197 % of control
- survivor count [2]: 9 of 10 and 10 of 10 (2×)
- T/C (dose: 50.0 mg/kg/injection, schedule: Q04DX003 (ip), vehicle: saline, evaluated on day 45): 180 % of control
- T/C (dose: 50.0 mg/kg/injection, schedule: Q04DX003 (ip), vehicle: saline, evaluated on day 60): 101, 144 [9 of 10 alive], 160, 169 % of control
- survivor count (dose: 50.0 mg/kg/injection, schedule: Q04DX003 (ip), vehicle: saline): 10 of 10
- T/C (dose: 50.0 mg/kg/injection, schedule: Q07DX003 (ip), vehicle: saline): 115, 146, 155, 163, 184, 253 % of control
- T/C (dose: 50.0 mg/kg/injection, schedule: Q07DX005 (ip), vehicle: saline, evaluated on day 5): 160, 181, 196 % of control
- T/C (dose: 50.0 mg/kg/injection, schedule: Q07DX005 (ip), vehicle: saline, evaluated on day 60): 160, 181, 196 % of control
- T/C (dose: 50.0 mg/kg/injection, schedule: Q10DX004 (ip), vehicle: saline, evaluated on day 5): 143 % of control
- T/C (dose: 50.0 mg/kg/injection, schedule: Q10DX004 (ip), vehicle: saline, evaluated on day 60): 143 % of control
- T/C (dose: 62.5 mg/kg/injection, schedule: Q04DX003 (ip), vehicle: saline, evaluated on day 45): 102, 203, 225 % of control
- T/C (dose: 62.5 mg/kg/injection, schedule: Q04DX003 (ip), vehicle: saline, evaluated on day 60): 186 % of control
- T/C (dose: 67.0 mg/kg/injection, schedule: Q09DX002 (ip), vehicle: saline): 125 % of control
- T/C (dose: 75.0 mg/kg/injection, schedule: Q01DX001 (ip), vehicle: water): 140 % of control
